Data as given in PubChem BioAssay AID248 (DTP/NCI, 2004).
The list is a part of this screen's results and no random one: it gathers tests that were run many times, whatever their T/C, doses with no T/C, and many T/C values between a quarter and a half above the control. Other doses and runs of a compound stand elsewhere. T/C gives the treated animals as a percentage of the vehicle group. Some doses have a count of surviving animals in place of a T/C: the source files T/C as zero there, which appears to mark a toxic dose or a test without result, not a measured value. Some survivor counts are full or nearly so, which does not show that the dose was tolerated: survival well below the control is almost never listed, so the zero probably covers shortened survival too. Counts of survivors are from the toxicity check (mostly the fifth day) where no day follows; animals may have died later. Schedules are NCI's codes, taken here to give the interval after Q, in days (D) or hours (H), and the number of doses after X. Some entries were tested several times; the results are listed from low to high. Some molecules as drawn cover several salts, stereoisomers or complexes of the source; a dose is that of the sample tested. For survival time, this PubChem deposit counts one and a half times the control or more as active, and values a quarter to a half above the control carry no call in these data; other NCI protocols may use other cut-offs. Additions like (4×) give the number of equal values in this list. Some T/C values carry the count of animals alive at the toxicity check (mostly the fifth day); where none is given, no animal had died by that day.

System: L1210 leukemia ip in BDF1 mice, survival T/C
Assay: NCI In Vivo Anticancer Drug Screen. Data for tumor model L1210 Leukemia (intraperitoneal) in B6D2F1 (BDF1) mice
Details: higher T/C = longer survival
[1] = T/C endpoint: mean survival time, dose: 200.0 mg/kg/injection, schedule: Q04DX003 (ip), vehicle: saline
[2] = T/C endpoint: mean survival time, dose: 400.0 mg/kg/injection, schedule: Q04DX003 (ip), vehicle: saline
[3] = T/C endpoint: mean survival time, dose: 400.0 mg/kg/injection, schedule: Q01DX001 (ip), vehicle: saline
[4] = T/C endpoint: mean survival time, dose: 200.0 mg/kg/injection, schedule: Q01DX009 (ip), vehicle: Klucel (hydroxypropylcellulose) (HPC)
[5] = T/C endpoint: mean survival time, dose: 50.0 mg/kg/injection, schedule: Q01DX001 (ip), vehicle: saline
[6] = T/C endpoint: mean survival time, dose: 100.0 mg/kg/injection, schedule: Q01DX001 (ip), vehicle: saline
[7] = T/C endpoint: mean survival time, dose: 50.0 mg/kg/injection, schedule: Q01DX009 (ip), vehicle: saline
[8] = T/C endpoint: mean survival time, dose: 100.0 mg/kg/injection, schedule: Q04DX003 (ip), vehicle: saline
[9] = T/C endpoint: mean survival time, dose: 200.0 mg/kg/injection, schedule: Q01DX001 (ip), vehicle: saline
[10] = T/C endpoint: mean survival time, dose: 2250.0 mg/kg/injection, schedule: Q02DX010 (ip), vehicle: carboxymethylcellulose (CMC)
[11] = T/C endpoint: mean survival time, dose: 200.0 mg/kg/injection, schedule: Q04DX003 (ip), vehicle: saline with Tween-80
[12] = T/C endpoint: mean survival time, dose: 200.0 mg/kg/injection, schedule: Q04DX003 (ip), vehicle: Klucel (hydroxypropylcellulose) (HPC)
[13] = T/C endpoint: mean survival time, dose: 400.0 mg/kg/injection, schedule: Q04DX003 (ip), vehicle: Klucel (hydroxypropylcellulose) (HPC)

CN(C)C(=O)c1ccc[n+](CC(=O)Nc2ccc(Cl)cc2)c1
survivor count [1]: 3 of 6
survivor count [2]: 0 of 6

Nc1nc(N)c2ncn(C3OC(CO)C(O)C3O)c2n1 (stereo not given)
survivor count [3]: 3 of 6

CN(C)C(=S)SSC(=S)N(C)C
survivor count [4]: 6 of 6

COc1ccc(OC)c(NC(=O)Nc2cccc(C(F)(F)F)c2)c1
survivor count (T/C endpoint: mean survival time, dose: 100.0 mg/kg/injection, schedule: Q01DX009 (ip), vehicle: carboxymethylcellulose (CMC)): 6 of 6
survivor count (T/C endpoint: mean survival time, dose: 200.0 mg/kg/injection, schedule: Q01DX009 (ip), vehicle: carboxymethylcellulose (CMC)): 6 of 6
survivor count (T/C endpoint: mean survival time, dose: 400.0 mg/kg/injection, schedule: Q04DX002 (ip), vehicle: carboxymethylcellulose (CMC)): 6 of 6
survivor count (T/C endpoint: mean survival time, dose: 400.0 mg/kg/injection, schedule: Q04DX003 (ip), vehicle: carboxymethylcellulose (CMC)): 6 of 6

CCCCCCCCCCCCCC(=O)[O][Hg][c]1ccccc1
survivor count (T/C endpoint: mean survival time, dose: 150.0 mg/kg/injection, schedule: Q01DX001 (ip), vehicle: steroid suspending solution): 0 of 6
survivor count (T/C endpoint: mean survival time, dose: 300.0 mg/kg/injection, schedule: Q01DX001 (ip), vehicle: steroid suspending solution): 0 of 6

CC(C)(C(=O)O)C(C)(C)C(=O)O
survivor count (T/C endpoint: mean survival time, dose: 25.0 mg/kg/injection, schedule: Q01DX001 (ip), vehicle: saline): 0 of 3
survivor count [5]: 0 of 3
survivor count [6]: 0 of 3

CC(CN1CC(=O)NC(=O)C1)N1CC(=O)NC(=O)C1.[Cl-].[Pt+4] (stereo not given)
T/C [7]: 137 % of control
survivor count (T/C endpoint: mean survival time, dose: 100.0 mg/kg/injection, schedule: Q01DX009 (ip), vehicle: saline): 1 of 6
T/C [8]: 133 % of control [5 of 6 alive]
survivor count (T/C endpoint: mean survival time, dose: 200.0 mg/kg/injection, schedule: Q01DX009 (ip), vehicle: saline): 0 of 6
survivor count [1]: 0 of 6
survivor count [2]: 0 of 6

CS(=O)(=O)OCCN(CCOS(C)(=O)=O)c1ccccc1
survivor count (T/C endpoint: mean survival time, dose: 200.0 mg/kg/injection, schedule: Q01DX001 (ip), vehicle: other): 1 of 4
survivor count (T/C endpoint: mean survival time, dose: 400.0 mg/kg/injection, schedule: Q01DX001 (ip), vehicle: other): 0 of 4

Nc1cc(Cl)cc(Cl)c1C(=O)O
survivor count (T/C endpoint: mean survival time, dose: 200.0 mg/kg/injection, schedule: Q01DX009 (ip), vehicle: other): 2 of 6
survivor count [2]: 0 of 6

CCCN=C(C)c1ccccc1O
survivor count (T/C endpoint: mean survival time, dose: 400.0 mg/kg/injection, schedule: Q04DX003 (ip), vehicle: acetone): 1 of 6

O=c1ccc([N+](=O)[O-])c[nH]1
survivor count [8]: 6 of 6

CCCCCCCCCCCCCCCCCC[N+](C)(C)C (tested in a mixture with another compound)
survivor count (T/C endpoint: mean survival time, dose: 8.0 mg/kg/injection, schedule: Q01DX015 (ip), vehicle: carboxymethylcellulose (CMC)): 2 of 4
survivor count (T/C endpoint: mean survival time, dose: 12.0 mg/kg/injection, schedule: Q04DX003 (ip), vehicle: saline sonified): 6 of 6
survivor count (T/C endpoint: mean survival time, dose: 16.0 mg/kg/injection, schedule: Q01DX015 (ip), vehicle: carboxymethylcellulose (CMC)): 2 of 6
survivor count (T/C endpoint: mean survival time, dose: 16.0 mg/kg/injection, schedule: Q01DX015 (ip), vehicle: saline): 1 of 6
survivor count (T/C endpoint: mean survival time, dose: 20.0 mg/kg/injection, schedule: Q01DX015 (ip), vehicle: saline): 0 of 6
survivor count (T/C endpoint: mean survival time, dose: 32.0 mg/kg/injection, schedule: Q04DX003 (ip), vehicle: saline): 1 of 6
survivor count [5]: 2 of 4
survivor count [7]: 0 of 6
survivor count (T/C endpoint: mean survival time, dose: 64.0 mg/kg/injection, schedule: Q04DX003 (ip), vehicle: saline): 1 of 6
survivor count [6]: 0 of 4
survivor count [8]: 1 of 6
survivor count (T/C endpoint: mean survival time, dose: 128.0 mg/kg/injection, schedule: Q04DX003 (ip), vehicle: saline): 0 of 6
survivor count [9]: 0 of 4

CCOC(N)=O
T/C (T/C endpoint: mean survival time, dose: 430.0 mg/kg/injection, schedule: Q02DX010 (ip), vehicle: carboxymethylcellulose (CMC)): 102, 109, 110 (2×), 112, 117 % of control
T/C (T/C endpoint: mean survival time, dose: 500.0 mg/kg/injection, schedule: Q01DX010 (ip), vehicle: saline): 125 % of control
T/C (T/C endpoint: mean survival time, dose: 670.0 mg/kg/injection, schedule: Q02DX010 (ip), vehicle: carboxymethylcellulose (CMC)): 101, 104, 108, 110, 118 % of control (2×)
survivor count (T/C endpoint: mean survival time, dose: 900.0 mg/kg/injection, schedule: Q01DX009 (ip), vehicle: saline): 10 of 10
survivor count (T/C endpoint: mean survival time, dose: 1000.0 mg/kg/injection, schedule: Q01DX010 (ip), vehicle: saline): 6 of 6
T/C (T/C endpoint: mean survival time, dose: 1000.0 mg/kg/injection, schedule: Q02DX010 (ip), vehicle: carboxymethylcellulose (CMC)): 99, 101, 109, 113, 114, 118 % of control
T/C (T/C endpoint: mean survival time, dose: 1500.0 mg/kg/injection, schedule: Q02DX010 (ip), vehicle: carboxymethylcellulose (CMC)): 68, 72, 76, 77, 81, 97 % of control
T/C (T/C endpoint: mean survival time, dose: 1601.0 mg/kg/injection, schedule: Q01DX001 (ip), vehicle: saline): 125 % of control
T/C [10]: 78 % of control
survivor count [10]: 6 of 6
survivor count (T/C endpoint: mean survival time, dose: 2390.0 mg/kg/injection, schedule: Q01DX001 (ip), vehicle: saline): 3 of 10
survivor count (T/C endpoint: median survival time, dose: 1000.0 mg/kg/injection, schedule: Q01DX009 (ip), vehicle: saline): 6 of 6

O=C(/C=C\c1ccc(Cl)c(Cl)c1)/C=C/c1ccc(Cl)c(Cl)c1
survivor count (T/C endpoint: mean survival time, dose: 200.0 mg/kg/injection, schedule: Q04DX002 (ip), vehicle: saline with Tween-80): 3 of 3

CCOC(=O)CCCN1CCC=C(C#N)C1
survivor count (T/C endpoint: mean survival time, dose: 150.0 mg/kg/injection, schedule: Q01DX001 (ip), vehicle: saline): 3 of 6

CCN1C(=O)CSC1=S
T/C (T/C endpoint: mean survival time, dose: 400.0 mg/kg/injection, schedule: Q04DX003 (ip), vehicle: other): 130 % of control

CCCCCCCC1N(C)CCCN1C
survivor count (T/C endpoint: mean survival time, dose: 100.0 mg/kg/injection, schedule: Q01DX009 (ip), vehicle: saline with Tween-80): 3 of 6
survivor count [11]: 0 of 6
survivor count (T/C endpoint: mean survival time, dose: 400.0 mg/kg/injection, schedule: Q04DX003 (ip), vehicle: saline with Tween-80): 0 of 6

CCc1ccccc1NC(=O)Oc1ccc(SC)cc1
survivor count (T/C endpoint: mean survival time, dose: 100.0 mg/kg/injection, schedule: Q04DX003 (ip), vehicle: saline with Tween-80): 6 of 6
survivor count [11]: 6 of 6
survivor count (T/C endpoint: mean survival time, dose: 400.0 mg/kg/injection, schedule: Q01DX009 (ip), vehicle: saline with Tween-80): 2 of 3 and 5 of 6

COc1c(OC2OC(CO)C(O)C(O)C2O)cc2c(c1OC)-c1ccc(SC)c(=O)cc1C(NC(C)=O)CC2 (stereo not given)
survivor count [5]: 1 of 6
survivor count [6]: 1 of 6
survivor count [9]: 2 of 6
survivor count [3]: 0 of 6

Cc1ccc(N=C=Nc2ccc(C)cc2)cc1
survivor count (T/C endpoint: mean survival time, dose: 100.0 mg/kg/injection, schedule: Q04DX003 (ip), vehicle: Klucel (hydroxypropylcellulose) (HPC)): 4 of 6
survivor count [12]: 1 of 6
survivor count [13]: 0 of 6

O=C(O)c1ccc(F)cc1O
survivor count [3]: 0 of 4

CCN(CC)C(=O)C1CN2CCc3cc(OC)c(OC)cc3C2CC1OC(C)=O (stereo not given)
survivor count [12]: 2 of 4
survivor count (T/C endpoint: mean survival time, dose: 400.0 mg/kg/injection, schedule: Q01DX009 (ip), vehicle: Klucel (hydroxypropylcellulose) (HPC)): 3 of 6
survivor count [13]: 2 of 4

O=[N+]([O-])c1cc([N+](=O)[O-])c(Cl)cc1Cl
survivor count (T/C endpoint: mean survival time, dose: 25.0 mg/kg/injection, schedule: Q01DX009 (ip), vehicle: Klucel (hydroxypropylcellulose) (HPC)): 2 of 6
survivor count (T/C endpoint: mean survival time, dose: 50.0 mg/kg/injection, schedule: Q01DX009 (ip), vehicle: Klucel (hydroxypropylcellulose) (HPC)): 1 of 6
survivor count (T/C endpoint: mean survival time, dose: 100.0 mg/kg/injection, schedule: Q01DX009 (ip), vehicle: Klucel (hydroxypropylcellulose) (HPC)): 0 of 6
survivor count [4]: 0 of 6
survivor count [13]: 5 of 6
